Source: PubChem BioAssay AID1259254 (NCATS, 2017)
Purpose: 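Gene knock-downs that lead to re-replication, shown by excess G2 DNA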 (primary screen). Cell system: human HCT116 colorectal cancer cells. Knock-down reagent: single siRNA against human genes. Duration: 3 days. Measured: 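Imaged Hoechst DNA stain sorts each cell into a cycle phase by DNA amount; per plate, G2 fraction set to 0% for non-targeting and 100% for GMNN siRNA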. Direction: G2 robust z-score: higher = more G2 cells, more excess DNA replication. Rule for the call: 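Active siRNAs have a G2 robust z of 5 or more median absolute deviations over the median, which in these data means about 38% or higher of GMNN control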.
Here is one part, drawn at random, of about 59,000 deposited reagents. Over the whole deposit, about 1,550 (2.6%) were called active. 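G2 share is only a proxy for re-replication; each gene was hit by three separate siRNAs, and active genes were retested.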 The numbers tell different reagents against one gene apart. Not all columns of the deposit are shown. No sequences are given here. Not stated in the record: the amount of reagent.

{"Target gene":"PCDHA11","siRNA no.":1,"G2 robust z-score":-0.426,"Outcome":"inactive"}
{"Target gene":"PCDHA11","siRNA no.":2,"G2 robust z-score":-0.26,"Outcome":"inactive"}
{"Target gene":"PCDHA11","siRNA no.":3,"G2 robust z-score":-0.959,"Outcome":"inactive"}
{"Target gene":"ZBTB6","siRNA no.":1,"G2 robust z-score":-0.83,"Outcome":"inactive"}
{"Target gene":"ZBTB6","siRNA no.":2,"G2 robust z-score":0.205,"Outcome":"inactive"}
{"Target gene":"ZBTB6","siRNA no.":3,"G2 robust z-score":-0.554,"Outcome":"inactive"}
{"Target gene":"BIVM","siRNA no.":1,"G2 robust z-score":0.614,"Outcome":"inactive"}
{"Target gene":"BIVM","siRNA no.":2,"G2 robust z-score":2.07,"Outcome":"inactive"}
{"Target gene":"BIVM","siRNA no.":3,"G2 robust z-score":-0.288,"Outcome":"inactive"}
{"Target gene":"ARPIN","siRNA no.":1,"G2 robust z-score":0.941,"Outcome":"inactive"}
{"Target gene":"ARPIN","siRNA no.":2,"G2 robust z-score":-0.701,"Outcome":"inactive"}
{"Target gene":"ARPIN","siRNA no.":3,"G2 robust z-score":0.384,"Outcome":"inactive"}
{"Target gene":"SLC10A6","siRNA no.":1,"G2 robust z-score":0.389,"Outcome":"inactive"}
{"Target gene":"SLC10A6","siRNA no.":2,"G2 robust z-score":-1,"Outcome":"inactive"}
{"Target gene":"SLC10A6","siRNA no.":3,"G2 robust z-score":1.33,"Outcome":"inactive"}
{"Target gene":"YBEY","siRNA no.":1,"G2 robust z-score":-0.32,"Outcome":"inactive"}
{"Target gene":"YBEY","siRNA no.":2,"G2 robust z-score":-1,"Outcome":"inactive"}
{"Target gene":"YBEY","siRNA no.":3,"G2 robust z-score":-0.391,"Outcome":"inactive"}

Continued (3 carried over from the part before).
{"Target gene":"YBEY","siRNA no.":1,"G2 robust z-score":-0.32,"Outcome":"inactive"}
{"Target gene":"YBEY","siRNA no.":2,"G2 robust z-score":-1,"Outcome":"inactive"}
{"Target gene":"YBEY","siRNA no.":3,"G2 robust z-score":-0.391,"Outcome":"inactive"}
{"Target gene":"OR5P2","siRNA no.":1,"G2 robust z-score":-0.653,"Outcome":"inactive"}
{"Target gene":"OR5P2","siRNA no.":2,"G2 robust z-score":5.02,"Outcome":"active"}
{"Target gene":"OR5P2","siRNA no.":3,"G2 robust z-score":-0.0132,"Outcome":"inactive"}
{"Target gene":"FAABTP","siRNA no.":1,"G2 robust z-score":-0.955,"Outcome":"inactive"}
{"Target gene":"FAABTP","siRNA no.":2,"G2 robust z-score":0.666,"Outcome":"inactive"}
{"Target gene":"FAABTP","siRNA no.":3,"G2 robust z-score":-0.092,"Outcome":"inactive"}
{"Target gene":"SMPD1","siRNA no.":1,"G2 robust z-score":-0.136,"Outcome":"inactive"}
{"Target gene":"SMPD1","siRNA no.":2,"G2 robust z-score":3.02,"Outcome":"inactive"}
{"Target gene":"SMPD1","siRNA no.":3,"G2 robust z-score":0.523,"Outcome":"inactive"}
{"Target gene":"CCDC110","siRNA no.":1,"G2 robust z-score":-0.0676,"Outcome":"inactive"}
{"Target gene":"CCDC110","siRNA no.":2,"G2 robust z-score":-0.356,"Outcome":"inactive"}
{"Target gene":"CCDC110","siRNA no.":3,"G2 robust z-score":0.47,"Outcome":"inactive"}
